Measurements taken from patent US10883963B2, “Electrochemical measurement using phenylenediamine derivative” (SEIKAGAKU CORPORATION, priority 2016, dated 2021).

Test system: Limulus reagent Endospecy ES-24S
Experiment: Limulus test (2): endotoxin measurement by voltammetric method using labeled substrates
Format: biochemical
Protocol: Limulus tests using the substrates for measurement acquired in <Reference Example 1> described above were performed, and measurements of endotoxin were performed by a voltammetric method. The test procedures are shown below.
The same conditions as those described in <Limulus Reaction> of <Example 2> described above were applied except that a cyclic voltammetric measurement was performed instead of the chronoamperometric measurement.
The same conditions as described in <Measurement Conditions> of <Example 1> above were applied.

SMILES	Measured value B/Measured value A (%)
CN(C)c1ccc(N)cc1 [DMPD, N, N-dimethyl-p-phenylenediamine]	34
CNc1ccc(N)cc1 [MPDD, N-methyl-p-phenylenediamine]	55
COc1ccc(N)cc1 [pMA, para methoxyaniline]	19
